This note sets out measurements from PubChem BioAssay AID1347423 (Functional Genomics Laboratory (NCATS/FGL), 2020).

The campaign covered roughly 52,000 sequences. About 210 (0.4%) were called active.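 How the source made its calls: active means gene whose silencing raises cell survival under the drug, median off-target-corrected z-score across its silencing RNAs 2 or more; inactive means the rest.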 The list shows a part of the results.

A short description of the assay: Resistance to Poly (ADP-Ribose) Polymerase inhibitor: Gene Identification via Genome-wide siRNA Screen. The conditions noted are these: mouse BRCA2 R2336H ES cells, olaparib, CellTiter-Glo viability; hits give high values. The procedure, abridged:
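Mouse BRCA2 R2336H ES cells were reverse-transfected with siRNA (20 nM final), treated at 48 h with 500 nM olaparib, and read by CellTiter-Glo after 72 h. Scores: MAD-based z per siRNA, median per gene, seed off-target correction.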
For the sequence GCGUGAGGUCUUGUCAUCATT against Foxn4, the z-score was inactive: -0.279.

For the sequence GGAGCUGUUGAGUGUUUAUTT against Ngly1, the z-score is inactive: -0.641.

Regarding GGAUUUAUUGACCUCUUAATT against Sp8, the z-score was inactive: -1.99.

For the sequence GGAAUGAGUUCCUUUAAAATT against Svs5, the z-score was inactive: 0.66.

In the case of GGCCAUCAAGAGUUUCUUUTT against Nr0b1, the z-score was inactive: -1.38.

As to GGCUUACAUUGACAUUAAATT against F5, the z-score is inactive: 0.782.

Turning to GGAUACCCUGCUUCCAAAATT against Hpd, the z-score is inactive: -0.578.

As for GGUAUCAACAUCACGAUUCTT against Mrgpra1, the z-score was inactive: -0.112.

As for CCUACUGUCUAAGAAUACATT against Olfr1138, the z-score was inactive: -0.296.

GAUCUGGCUGCUUCUUACCTT against Porcn: the z-score was inactive: -0.515.

Take GGAAAAUACAAGUCCAUUCTT against B4galt5: the z-score is inactive: -1.18.

As to “GGUUGAAAUAGAGAUCAUATT against 9930032O22Rik”, the z-score was inactive: -0.118.

For GGCAUUUGAGAAUAUUGAATT against Casq1, the z-score is inactive: 2.47.

With GCGAAUCAUUGAGAACGGCTT against Dnajb8, the z-score is inactive: 0.808.

Turning to GGAUAUUUCAGUUGGCGGGTT against Lama2, the z-score was inactive: 0.843.

With GGAGGACAACAGCAAAACATT against Atoh1, the z-score is inactive: 0.755.

Take GCAACGUGAUCCCUUCAUUTT against Slc26a7: the z-score was inactive: -0.599.

For the sequence CGCGAGGAAGUCGAGGUAUTT against Pax2, the z-score is inactive: -0.971.

For the sequence GCAUGGAAUCACGAAGUAGTT against BC003993, the z-score is inactive: -3.1.

In the case of GGAUCACCGGUUUCCGACUTT against Mgst2, the z-score is inactive: 0.306.

With GCUACUUUGUCCGACUCUATT against Pigt, the z-score is inactive: -2.03.

In the case of CGACUUCUGUUUAACUUAATT against Wdr26, the z-score is inactive: -0.257.

Regarding CCGCUUGCUCAUUGUAUCATT against Ruvbl2, the z-score was inactive: -2.06.

CCUGCCAAAAGUUGUGGAGTT against Uqcrc1: the z-score is inactive: 0.0563.

Regarding GGAAAAGACAUCAGAUGAATT against Mrpl1, the z-score is inactive: -1.1.

As for GGUGGUGGAGAAGAUAGGATT against Pax8, the z-score is inactive: 0.516.

As to “GCUAUUGCCUUACUUUAAGTT against 4930518C23Rik”, the z-score was inactive: -0.107.

Consider GGACUUAACAGCAACGCAGTT against Ndn, for which the z-score was inactive: -1.13.

On to CGGUCAGGGUCCUAAAUAUTT against Txnl1, for which the z-score is inactive: -1.49.

For the sequence CGUGAUCAGACACUUCACCTT against Olfr71, the z-score was inactive: -0.86.

Regarding GGAAAUACCCUUAUUUGUGTT against Asns, the z-score was inactive: -1.36.

For GGAGUUUGGCGAAGACCUATT against MGC27742, the z-score was inactive: -0.917.

Turning to “GGCUGACAAUCCCAAUCUATT against 1500031H04Rik”, the z-score was inactive: -0.744.

Turning to “GCUGUGACCCUUGUCCUUUTT against 2610009E16Rik”, the z-score is inactive: -0.678.

Consider “GGAGGAUCAAGCAAACUUUTT against A230097C02”, for which the z-score is inactive: -0.207.

Regarding GGAGAACCGUAACAACAACTT against Cacna1a, the z-score is inactive: 2.01.

Take CCUGAUUCCAAAUGUGUUUTT against Sgcb: the z-score is inactive: 0.855.

Consider GGAACAAAAAGUUUCCCUUTT against Dnaja3, for which the z-score was inactive: -2.2.

In the case of GGAAUCCACGUUCUAGAUUTT against Ptp4a2, the z-score is inactive: -0.364.

GCCAUGUGCACUGAAUAUATT against Gral: the z-score is inactive: 0.895.

Take GCCUUAAUACUCACCAGGGTT against Zfp29: the z-score was inactive: 0.94.

For the sequence GCAUUCAAACUGCUCACGUTT against Suclg2, the z-score is inactive: -0.401.

Take GGAUCACUGCUUACAAACGTT against Icam4: the z-score was inactive: 0.233.

“GGAGGGAUAUGGAAACAAGTT against D330038O06”: the z-score is inactive: -1.72.

As for “CCAUGUCUUAGAAGAAGACTT against A730069N07Rik”, the z-score is inactive: -1.58.

Consider GGCCCUGUUGCUAUGUGUUTT against Bpy2ip1, for which the z-score is inactive: 1.2.

Regarding AAUUCUGGACGAGGAGCAUTT against Abcc5, the z-score was inactive: 0.89.

GCAUCUCAAGGAUCUUCGGTT against Syngr4: the z-score is inactive: 0.302.

As for CCAUAAUAGAGGCAAUUACTT against BC030477, the z-score was inactive: -0.127.

As to CCCUGGGAGUUGAAUUGUUTT against Aqp6, the z-score was inactive: 1.98.

For the sequence GGUGUUUACUUCCUCAGAATT against C80638, the z-score is inactive: -0.494.

Take GGCAACAGCAAUGACAUCCTT against Dbnl: the z-score was inactive: -0.324.

On to GCUGGCCAAAUUCUGUGGUTT against Psph, for which the z-score was inactive: 0.299.

On to CCUGAUCAAGGUGAAACGGTT against LOC547431, for which the z-score was inactive: -1.06.

For “GGAAAAAGAAAGAAGGUUCTT against 4930483J18Rik”, the z-score is inactive: -0.881.

In the case of GCCUUGUGUGCUGUCCUCUTT against Ly6g5c, the z-score is inactive: 2.27.

GGUGAAUGCAAGAUCACCUTT against Myl1: the z-score was inactive: 0.107.

“GGAGAAGACGGCUAAGCUCTT against D7Bwg0611e”: the z-score is inactive: -0.297.

As to GGAGGUAUUCAAGAUUUGATT against Sec10l1, the z-score is inactive: -1.14.

In the case of “GGAGGAGCGGUUUUAUCAGTT against D0H8S2298E”, the z-score was inactive: 1.61.

For the sequence “CCCGUACAUUGAGUGCAAUTT against 6330403K07Rik”, the z-score was inactive: 2.67.

For the sequence GGCAGCAGCAAGUUUCUUCTT against Rnpc1, the z-score is inactive: -0.0723.

Consider GCGAGAUCACUUUCCAAUCTT against Ddr2, for which the z-score is inactive: 1.23.

Consider “GGUAUUCGAGCAGAUAUAUTT against 9130218O11Rik”, for which the z-score is inactive: 0.332.

GCUUUUCCGCUUCUACCGGTT against Nrp: the z-score was inactive: 0.305.

On to GGUAGAACUUAUUGUGGACTT against Ly6f, for which the z-score is inactive: -0.282.

As for GGAACUGUCAUGACAUUUCTT against Ddt, the z-score is inactive: 0.0607.
